Test results: article PMC9147068, “The Response Regulator RegA Is a Copper Binding Protein That Covalently Dimerizes When Exposed to Oxygen” (Microorganisms, 2022)
These are yes or no findings as the source states them, for the method shown. Sequences can lack the tags named with a protein.

Legend:
[1] = target: RegA (response regulator RegA of Rhodobacter capsulatus), wild type, tagless (Rhodobacter capsulatus) (UniProt P42508); test: ESI-MS; RegA monomers with or without Cu2+ (CuSO4) in an anaerobic chamber, degassed buffers, 10 min; quenched with EDTA or passed through filters; LC (C4 reverse phase)-MS; both purified
[2] = target: RegA (response regulator RegA of Rhodobacter capsulatus), wild type, tagless (Rhodobacter capsulatus) (UniProt P42508); test: non-reducing SDS-PAGE; RegA dimer formed with Cu2+ and O2, isolated away from the monomer by gel filtration, then treated with DTT; both purified
[3] = target: RegA (response regulator RegA of Rhodobacter capsulatus), wild type, tagless (Rhodobacter capsulatus) (UniProt P42508); test: condition: only with Mg2+, Ca2+, Co2+, Ni2+, Zn2+ or Mn2+ in place of Cu2+; non-reducing SDS-PAGE; RegA treated with Mg2+, Ca2+, Co2+, Ni2+, Zn2+ or Mn2+ by the same protocol as for Cu2+; both purified
[4] = target: RegA (response regulator RegA of Rhodobacter capsulatus), wild type, tagless (Rhodobacter capsulatus) (UniProt P42508); test: non-reducing SDS-PAGE; RegA in air without Cu2+, different time periods up to 4 h; both purified

binding [2]: no binding (condition: with DTT)
binding [3]: no binding
B1: RegA (response regulator RegA of Rhodobacter capsulatus), wild type, tagless (natural protein, UniProt P42508 1-184, looked up)
chain: MAEEEFAELGSDRSLLLVDDDNAFLTRLARAMEKRGFQTEIAETVSAGKAIVQNRAPAYAVIDLRLEDGNGLEVVEALRERRPEARIVVLTGYGAIATAVAAVKMGATDYLSKPADANDITNALLAKGEALPPPPENPMSADRVRWEHIQRVYELCDRNVSETARRLNMHRRTLQRILAKRSPR
notes: RegA, response regulator of the RegB/RegA two-component system, Rhodobacter capsulatus; wild-type codon at residue 95 (made from the RegA* overexpression vector of Du et al. 1998); a single cysteine, Cys156, in the tryptic peptide VYELCDR; The dimer formed with Cu2+ and O2 is joined by an intermolecular disulfide bond between Cys156 of two chains; also called apo-RegA; RegA monomer
binding [1]: no binding (condition: anaerobic, with or without Cu2+)
binding [4]: no binding (condition: in air without Cu2+, up to 4 h)
